Test results reported in paper PMC5520489.
Results are given in words; binding and its absence hold for the method and conditions named. Some binding calls cover weakened binding; strength is not graded here.

What was measured:
[1] = target: Recombinant human p53 (human) (UniProt P04637); test: co-IP; as a2/a3 but in the presence of nutlin (HDM2 inhibitor); recombinant proteins; agarose beads conjugated with LZAP or p53 antibodies; blots for HDM2, LZAP, p53; both purified
[2] = target: Recombinant human p53 (human) (UniProt P04637); test: co-IP; about 100 ng of each recombinant protein in PBS, 0.05% Triton X100, 100 mM NaCl, 0.05% BSA, 1 h at 4°C; precipitated with DO1 (p53 antibody) agarose; blots for HDM2, LZAP, p53, GST; both purified

binding [1]: binds | binding [2]: binds
B1: Recombinant LZAP (protein, UniProt Q96JB5 1-506)
chain: MEDHQHVPIDIQTSKLLDWLVDRRHCSLKWQSLVLTIREKINAAIQDMPESEEIAQLLSGSYIHYFHCLRILDLLKGTEASTKNIFGRYSSQRMKDWQEIIALYEKDNTYLVELSSLLVRNVNYEIPSLKKQIAKCQQLQQEYSRKEEECQAGAAEMREQFYHSCKQYGITGENVRGELLALVKDLPSQLAEIGAAAQQSLGEAIDVYQASVGFVCESPTEQVLPMLRFVQKRGNSTVYEWRTGTEPSVVERPHLEELPEQVAEDAIDWGDFGVEAVSEGTDSGISAEAAGIDWGIFPESDSKDPGGDGIDWGDDAVALQITVLEAGTQAPEGVARGPDALTLLEYTETRNQFLDELMELEIFLAQRAVELSEEADVLSVSQFQLAPAILQGQTKEKMVTMVSVLEDLIGKLTSLQLQHLFMILASPRYVDRVTEFLQQKLKQSQLLALKKELMVQKQQEALEEQAALEPKLDLLLEKTKELQKLIEADISKRYSGRPVNLMGTSL
